Patent publication US5242943A, “3-aminopropoxyphenyl derivatives, their preparation and pharmaceutical compositions containing them” (Louis; William J., priority 1984, dated 1993)
For at least one compound, name, drawing or mass did not settle the structure. Some results were stated once for a whole list of compounds, not compound by compound. Some compounds share one range, which may span the group rather than tell each member.

Legend:
resting heart rate = test: Intrinsic sympathomimetic activity: increase in resting heart rate in pithed rat; type: in vivo; settings: cumulative doses up to 3 mg/kg; for increase in resting heart rate (intrinsic sympathomimetic activity): in words
tracheal muscle = test: Tracheal preparations of the guinea pig, blockade of isoproterenol relaxation; type: cell-based

CC(C)COCCOc1ccc(OCC(O)CN[C@H](C)CNC(=O)C2CCOCC2)cc1 (stereo partly shown) [Example 21]
maximum increases in heart rate (resting heart rate): 21-105 beats/min
increase in resting heart rate (intrinsic sympathomimetic activity) (resting heart rate): all showed increases in heart rate

CCCOCCOc1ccc(OCC(O)CNCCNC(=O)C2CCOCC2)c(C#N)c1 (stereo not shown) [Example 8]
maximum increases in heart rate (resting heart rate): 21-105 beats/min
increase in resting heart rate (intrinsic sympathomimetic activity) (resting heart rate): all showed increases in heart rate

O=C(NCCNCC(O)COc1ccc(OCCOCc2ccc(F)cc2)cc1)C1CCOCC1 (stereo not shown) [Example 7]
maximum increases in heart rate (resting heart rate): 21-105 beats/min
increase in resting heart rate (intrinsic sympathomimetic activity) (resting heart rate): all showed increases in heart rate

CCCOCCOc1ccc(OCC(O)CNCCNC(=O)C2CCOCC2)cc1 (stereo not shown) [Example 3]
maximum increases in heart rate (resting heart rate): 21-105 beats/min
increase in resting heart rate (intrinsic sympathomimetic activity) (resting heart rate): all showed increases in heart rate

CCCOCCOc1ccc(OC[C@@H](O)CN[C@H](C)CNC(=O)C2CCOCC2)cc1 [Example 10, (S)-1-(4-(2-propoxyethoxy)phenoxy)-((R)-2-(tetrahydropyran-4-ylcarbonylamino)-1-methylethylamino)-2-propanol]
blocking effect of the responses to isoproterenol in the trachea (tracheal muscle; at concentrations as high as 3×10^-5 mol/l): no blocking effect
selectivity for the cardiac beta 1 adrenoceptor (tracheal muscle; atria vs trachea, in words): virtually absolute selectivity
maximum increases in heart rate (resting heart rate): 21-105 beats/min
increase in resting heart rate (intrinsic sympathomimetic activity) (resting heart rate): all showed increases in heart rate

CCCOCCOc1ccc(OC[C@@H](O)CN[C@@H](C)CNC(=O)C2CCOCC2)cc1 [Example 11, (S)-1-(4-(2-propoxyethoxy)phenoxy)-3-((S)-2-(tetrahydropyran-4-yl-carbonylamino)-1-methylethylamino)-2-propanol]
maximum increases in heart rate (resting heart rate): 21-105 beats/min
increase in resting heart rate (intrinsic sympathomimetic activity) (resting heart rate): all showed increases in heart rate

CCCOCCOc1ccc(OC[C@@H](O)CNC(C)CNC(=O)C2CCOCC2)cc1 (stereo partly drawn) [Example 9, (S)-1-(4-(2-propoxyethoxy)phenoxy)-3((R,S)-2-(tetrahydropyran-4-ylcarbonylamino)-1-methylethylamino)-2-propanol]
maximum increases in heart rate (resting heart rate): 21-105 beats/min
increase in resting heart rate (intrinsic sympathomimetic activity) (resting heart rate): all showed increases in heart rate

Cc1cc(OCCOCC2CC2)ccc1OCC(O)CNCCNC(=O)C1CCOCC1 (stereo not shown) [Example 1, 1-(2-Methyl-4-(2-cyclopropylmethoxyethoxy)-phenoxy)-3-(2-(tetrahydropyran-4-yl-carbonylamino)ethylamino)-2-propanol]
maximum increases in heart rate (resting heart rate): 21-105 beats/min
increase in resting heart rate (intrinsic sympathomimetic activity) (resting heart rate): all showed increases in heart rate

O=C(NCCNCC(O)COc1ccc(OCCOCC2CCCC2)cc1)C1CCOCC1 (stereo not shown) [Example 5]
maximum increases in heart rate (resting heart rate): 21-105 beats/min
increase in resting heart rate (intrinsic sympathomimetic activity) (resting heart rate): all showed increases in heart rate

C[C@H](CNC(=O)C1CCOCC1)NCC(O)COc1ccc(OCCOCC2CCCC2)cc1 (stereo partly shown) [Example 15]
maximum increases in heart rate (resting heart rate): 21-105 beats/min
increase in resting heart rate (intrinsic sympathomimetic activity) (resting heart rate): all showed increases in heart rate

CC(C)COCCOc1ccc(OCC(O)CNCCNC(=O)C2CCOCC2)cc1 (stereo not shown) [Example 4]
maximum increases in heart rate (resting heart rate): 21-105 beats/min
increase in resting heart rate (intrinsic sympathomimetic activity) (resting heart rate): all showed increases in heart rate

O=C(NCCNCC(O)COc1ccc(OCCOCCc2ccc(F)cc2)cc1)C1CCOCC1 (stereo not shown) [Example 6]
maximum increases in heart rate (resting heart rate): 21-105 beats/min
increase in resting heart rate (intrinsic sympathomimetic activity) (resting heart rate): all showed increases in heart rate

CCCOCCOc1ccc(OCC(O)CNCCNC(=O)C2CCOCC2)c(F)c1 (stereo not shown) [Example 2, 1-(2-fluoro-4-(2-propoxy-ethoxy)phenoxy)-3-(2-(tetrahydropyran-4-yl-carbonylamino)ethylamino)-2-propanol]
maximum increases in heart rate (resting heart rate): 21-105 beats/min
increase in resting heart rate (intrinsic sympathomimetic activity) (resting heart rate): all showed increases in heart rate
